Measurements published in patent publication US20200115446A1 (NATIONAL UNIVERSITY CORPORATION HOKKAIDO UNIVERSITY, priority 2017, published 2020).

What was measured:
Format in all cases: in vivo, rat
[1] = Bone mass (micro-CT, bone microstructure analysis) and BMD (DXA) of the distal femur, pediatric steroid-induced osteoporosis model rats; settings: GC model rats
Description: (§1) 6-week-old growing female LEW/Cr1Crlj rats were used.
(§2) On the other hand, a steroid-induced osteoporosis model with rats has not been established. Thus, in this Example, a model rat with Prednisolone 25 mg/pellet/60 days implanted under the skin of a 6-week-old female LEW/Cr1Crlj rat was employed as a pediatric steroid-induced osteoporosis model. In this model, it was confirmed that 2, 4 and 6 weeks after implantation of prednisolone, the femur BMD decreased, and the maximum stress of each of the femur and the lumber vertebra decreased.
(3) Experimental Group (n=10 in Each Group) (i) Sham group: Sham-operation+Vehicle (PBS) (subcutaneous administration) (ii) GC group: Prednisolone (PSL) pellet 25 mg/pellet/60 days-subcutaneous implantation (GC)+Vehicle (PBS) (subcutaneous administration) (iii) GC+Siglec-15Ab group: GC treatment was performed, and an anti-Siglec-15 antibody was subcutaneously administered once every 3 weeks at a dosage of 1 mg/kg (low dosage) or at a dosage of 10 mg/kg (high dosage). The #32A1 antibody was used as the anti-Siglec-15 antibody. (iv) GC+ALN group: GC treatment was performed, and ALN was subcutaneously administered twice a week at a dosage of 0.014 mg/kg (low dosage) or at a dosage of 0.140 mg/kg (high dosage). […]
Micro-CT imaging of the femur and the tibia was performed, and the right femur length was measured. […]

osteoclasts [2] = assay: TRACP staining of osteoclasts in the primary spongiosa region, pediatric steroid-induced osteoporosis model rats; settings: GC model rats, proximal tibia, age of 12 weeks, vs. GC group
Description: as §1, §2
(3) Experimental Group (n=10 in Each Group) (i) Sham group: Sham-operation+Vehicle (PBS) (subcutaneous administration) (ii) GC group: Prednisolone (PSL) pellet 25 mg/pellet/60 days-subcutaneous implantation (GC)+Vehicle (PBS) (subcutaneous administration) (iii) GC+Siglec-15Ab group: GC treatment was performed, and an anti-Siglec-15 antibody was subcutaneously administered once every 3 weeks at a dosage of 1 mg/kg (low dosage) or at a dosage of 10 mg/kg (high dosage). The #32A1 antibody was used as the anti-Siglec-15 antibody. (iv) GC+ALN group: GC treatment was performed, and ALN was subcutaneously administered twice a week at a dosage of 0.014 mg/kg (low dosage) or at a dosage of 0.140 mg/kg (high dosage).
6 weeks after the start of administration (age of 6 weeks to age of 12 weeks). […]

osteoclasts [3] = assay: TRACP staining of osteoclasts, growing healthy rats; settings: age of 12 weeks, vs. Ct1 group
Description: 6-week-old growing male F344 rats were used.
(2) Experimental Groups (n=10 in Each Group) (i) Control group (hereinafter, referred to as “Ct1 group”) (ii) Anti-Siglec-15 antibody administration group (hereinafter, referred to as “Sig-15 Ab administration group”): The #32A1 antibody was used as an anti-Siglec-15 antibody. The anti-Siglec-15 antibody was subcutaneously administered once every 3 weeks at a dosage of 0.25, 1 or 4 mg/kg. (iii) Bisphosphonate administration group (hereinafter, referred to as “ALN administration group”): Alendronate (ALN) (manufactured by LKT Laboratories, Inc.) was subcutaneously administered twice a week at a dosage of 0.028 or 0.140 mg/kg.
6 weeks after the start of administration (age of 6 weeks to age of 12 weeks). After the end of the period (age of 12 weeks), the animals were euthanized, and evaluation was performed.
Decalcified tissue sample: knee joint disarticulation was performed, and samples of a coronal section tissue of the proximal tibia (proximal right knee tibia ½) and a fifth lumber vertebra coronal section tissue were prepared.
Osteoclastic cells were detected and evaluated by chemical staining with tartrate-resistant acid phosphatase (TRACP) (hereinafter, referred to as “TRACP staining”) and counter staining with methyl green. The growth cartilage part was detected and evaluated by safranine O staining (staining of acidic mucopolysaccharide).

For `NCCCC(O)(P(=O)(O)O)P(=O)(O)O` [ALN, Alendronate], the “longitudinal growth (indicated by 3D-CT bone mass distribution)” value [1] was “hindered”, the “ratio of the osteoclast surface to the bone surface (Oc. Pm/B. Pm) in the primary spongiosa region” value (osteoclasts [2]) was “significant decrease” and the “ratio of the osteoclast surface to the bone surface (Oc. Pm/B. Pm)” value (osteoclasts [3]; lumber vertebra) was “decreased”. For the same molecule, the “ratio of the osteoclast surface to the bone surface (Oc. Pm/B. Pm)” value (osteoclasts [3]; proximal tibia secondary spongiosa) was “decreased” and the “ratio of the osteoclast surface to the bone surface in the primary spongiosa region (Oc. Pm/B. Pm)” value (osteoclasts [3]; proximal tibia) was “significantly inferior”.
